Data: PubChem BioAssay AID1259415 (National Center for Advancing Translational Sciences (NCATS), 2018)
About 18,000 (4.4%) of roughly 410,000 compounds were called active. The inconclusive results got no clear call from the source; some entries with a clear call stand among them for comparison. Rule as the data show it: active = activity change below about -60%; inconclusive = no clear call, values can overlap the other calls; inactive = above about -39%.

Test: qHTS Assay for inhibitors of the human cytomegalovirus (HCMV)
Conditions: HFF cells, HCMV-luciferase reporter, 72 h; at 57.5 µM; active compounds read low
Procedure, shortened: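 Screen run at 2 compound doses on HFFs infected with reporter HCMV, MOI 1 PFU/cell. Luciferase activity from cell lysates at 72 h post infection gave inhibition relative to buffer-only and Salinomycin wells.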
% is scaled to controls: 0 for no effect and ±100 for the full control effect.

SMILES | activity change, negative = inhibition
CC(C)(C)CC(C)(C)NC(=O)Nc1cccc([N+](=O)[O-])c1 | inconclusive: -40.7%
N#C/C(=C\c1cccc([N+](=O)[O-])c1)c1nnc2n1CCCCC2 | active: -69.5%
COC(=O)C1=CN(C2CC2)C=C(C(=O)OC)C1c1ccc(C(F)(F)F)cc1 | inconclusive: -40.2%
COc1ccc(C(CNC(=O)c2cc3c(s2)CCC(C)C3)N2CCCC2)cc1 (stereo unspecified) | inconclusive: -50.3%
O=C(CNC(=O)c1ccc([N+](=O)[O-])cc1)N/N=C/c1c[nH]c2ccccc12 | inconclusive: -48.8%
CCN(C(=O)COC(=O)c1cccc(S(=O)(=O)N(C)C)c1)c1c(N)n(Cc2ccccc2)c(=O)[nH]c1=O | inconclusive: -46.8%
CSc1ccc(CN(C)CC(=O)NC(C)c2ccccc2)cc1 (stereo unspecified) | inconclusive: -51%
Cc1ccc(NC(=O)Cn2nnc(-c3nc(-c4ccncc4)no3)c2N)cc1 | inactive: 3.71%
Cc1ccccc1N(CC(=O)Nc1ccccc1C(=O)NCc1ccco1)S(=O)(=O)c1ccccc1 | inconclusive: -55.4%
CCOC(=O)c1ccccc1NC(=O)COC(=O)CCNS(=O)(=O)c1ccc(C)c(C)c1 | inconclusive: -59.5%
NC(=O)C1CCN(c2ccc([N+](=O)[O-])cc2Cl)CC1 | inconclusive: -44.3%
CC(C)[C@H](NC(=O)OC(C)(C)C)c1cc(C(=O)N2CCOCC2)c(N)s1 | inactive: -16.4%
CCOc1ccc2nc(C)cc(Nc3ccccc3OCC)c2c1 | inconclusive: -52.1%
Cc1ccccc1-c1cc(C(=O)NCc2cccc(Br)c2)nn1CC1CC(c2cccc([N+](=O)[O-])c2)=NO1 (stereo unspecified) | inactive: -8.05%
COc1cccc(NC(=O)CN(C)C(=O)CCNC(=O)c2ccccc2OC)c1 | inactive: -19%
CCOC(=O)CSc1nc2c(sc3ccccc32)c(=O)n1CCc1ccccc1 | inactive: -20%
CCOc1ccc(/C=N/NC(=O)c2ccc(CSc3nc4ccccc4[nH]3)cc2)cc1 | inconclusive: -49.6%
O=[N+]([O-])c1ccccc1S(=O)(=O)N1CCN(CC2CC3C=CC2C3)CC1 (stereo unspecified) | inconclusive: -44.9%
Cn1c(NNC(=O)c2ccc(C(C)(C)C)cc2)cc(=O)n(C)c1=O | inconclusive: -55%
COC(=O)c1sc2ncn(-n3c(C)ccc3C)c(=O)c2c1C | inactive: -8.74%
CCNC(=S)N1CCNC(=O)C1CC(=O)OC (stereo unspecified) | active: -72.5%
CN(Cc1ccccc1)C(=O)c1cccc(NC(=O)c2ccco2)c1 | inconclusive: -45.3%

SMILES | activity change, negative = inhibition
Cc1cccnc1Nc1nc(-c2ccc(O)cc2O)cs1 | inactive: 39.7%
CCC(C)NC(=O)CSc1nc2c(sc(=S)n2Cc2ccco2)c(=O)n1-c1ccccc1 (stereo unspecified) | inconclusive: -52.9%
CC(C)[C@H](NC(=O)[C@@H]1Cc2ccccc2CN1C(=O)OC(C)(C)C)C(=O)NCc1ccco1 | inconclusive: -43%
COC(=O)[C@H](Cc1ccccc1)NC(=O)c1ccc2ccccc2n1 | inactive: -20.4%
CN(Cc1cccc(F)c1)C(=O)C(c1ccccc1)c1ccccc1 | inconclusive: -56.6%
COc1ccc(CNC(=O)C(c2ccc(C)o2)N(C(=O)c2snc(C(N)=O)c2N)c2ccccc2OC)cc1 (stereo unspecified) | inconclusive: -54.9%
C[C@@H](NC(=O)c1[nH]cnc1C(=O)Nc1ccccc1F)c1ccccc1 | inactive: -10.7%
O=C(N/N=C/c1ccc(F)c(F)c1)c1cc2c(s1)-c1ccccc1CC2 | inconclusive: -51.6%
Fc1ccc(-n2nnc(-c3ccccc3Br)n2)cc1 | inactive: 15.5%
COc1ccc(CCNC(=O)CSc2nc3[nH]ncc3c(=O)n2-c2ccc(Br)cc2)cc1OC | inconclusive: -59.6%
CCn1cc(C(=O)N2CCN(c3ccccc3F)CC2)c(=O)c2cc(S(=O)(=O)N(C)C3CCCCC3)ccc21 | inactive: 20.1%
O=C1c2ccccc2C(=O)N1CCC(=O)N1CCCc2ccccc21 | inactive: -16.3%
O=C(COc1ccccc1/C=C1/NC(=O)NC1=O)Nc1ccccc1 | inconclusive: -48.2%
O=C(CCN1CCN(c2ccccc2)CC1)N/N=C/c1ccc(O)c(O)c1O | inconclusive: -59.2%
NS(=O)(=O)c1ccc(CCNCc2cc(Cl)ccc2OCc2ccccc2)cc1 | active: -66.8%
COC(=O)C1CCCN1C(=O)C12CC3CC(CC(C3)C1)C2 (stereo unspecified) | inactive: -27.4%
Cc1ccc(-n2c(=O)[nH]c3c(C(N)=O)nc(-c4ccc(C)o4)nc32)cc1 | inactive: -36.9%
Cc1cc(NC(=O)CCC(=O)N(Cc2cccnc2)C(C(=O)NC(C)(C)C)c2ccccc2Cl)no1 (stereo unspecified) | inconclusive: -46.6%
C[C@H]1CCC/C=C/[C@@H]2C[C@H](O)C[C@H]2[C@H](O)[C@H](S(=O)c2ccc(O)cc2)CC(=O)O1 (stereo partly specified) | active: -98.8%
Cc1cccc(C)c1OCc1cc(C(=O)N2CCC(c3ccncc3)CC2)no1 | inconclusive: -46.2%
CC(Nc1nc(-c2cccnc2)nc2ccccc12)c1ccccc1 (stereo unspecified) | inconclusive: -40.6%
CCN(CC)C1=CC(=O)OC12CCCCC2 | inactive: 24.8%

SMILES | activity change, negative = inhibition
Cc1ccc(NC(=O)c2ccc(NCCN)c([N+](=O)[O-])c2)cc1Cl | active: -81.7%
Cn1c(=O)c2c(ncn2CC(=O)Nc2cccc(C(F)(F)F)c2)n(C)c1=O | inactive: 2.82%
COc1ccc(NS(=O)(=O)c2ccc3c(c2)CCN3C(=O)CCC(=O)O)cc1OC | inconclusive: -42.5%
Cc1ccc(S(=O)(=O)N2CCOCC2)cc1C(=O)N1CCCC1 | inactive: -26.4%
c1ccc(-c2nnc(C(c3ccccc3)c3ccccc3)o2)cc1 | inconclusive: -49.4%
O=C(CSc1ncccn1)N/N=C/c1cccs1 | inconclusive: -44.1%
CC(=O)C1C(c2ccc3ncccc3c2)NC(=O)NC1(O)C(F)(F)F (stereo unspecified) | inactive: 13.3%
O=C1CC2(CCN(C(=O)c3cccc(Cl)c3)CC2)Oc2ccccc21 | active: -98.9%
Cc1n(C)c2cc(Cl)ccc2[n+]1Cc1ccccc1 | active: -60%
COc1cccc(C2c3cc4c(cc3OC(NNC(N)=O)C2C)OCO4)c1O (stereo unspecified) | active: -72.7%
O=c1c2[nH]c3cccc(Cl)c3c2ncn1CCN1CCCCC1 | inactive: 127%
CCCn1nnc(NC(=S)NC(=O)C(C)(C)C)n1 | inconclusive: -52.9%
Cc1cc(=O)oc2c(C)c(OCC(=O)N3CCN(c4ccc(F)cc4)CC3)ccc12 | inactive: -16.8%
Cc1cccn2cc(CNS(=O)(=O)c3ccc4ccccc4c3)nc12 | inconclusive: -40.5%
C=CCc1cc(Cl)ccc1OCCOCCN(C)C | inconclusive: -44.1%
CCc1ccc(S(=O)(=O)NCCc2csc3nc(-c4ccccc4)nn23)s1 | active: -78.9%
CCOc1ccc(Nc2nc3cc(S(=O)(=O)CC)ccc3o2)cc1 | inconclusive: -44.2%
COc1cccc(CNC(=O)Cn2ncc3c4ccccc4n(Cc4ccccc4)c3c2=O)c1 | inactive: -21.3%
COC(=O)C1(C)NC(c2ccc(O)cc2)C2C(=O)N(c3ccc4c(c3)OCCO4)C(=O)C21 (stereo unspecified) | active: -73.3%
COc1ccc(NC(=O)COC(=O)c2c(C)noc2C)cc1Cl | inconclusive: -44.4%
Cc1cc(NC(=O)CCN2C(=O)c3ccccc3C2=O)no1 | inactive: 11.2%
CCc1ccc(Oc2c(C(F)(F)F)oc3c(CN4CCN(C)CC4)c(O)ccc3c2=O)cc1 | inactive: -27.2%

SMILES | activity change, negative = inhibition
O=C(Cn1cc(SCc2cccc(Cl)c2)c2ccccc21)N1CCCCCC1 | inactive: -25.5%
CCCCC(C(=O)NC1CCCC1)N(Cc1ccccc1)C(=O)c1snc(C(N)=O)c1N (stereo unspecified) | active: -60.8%
Cn1c(=O)c2c(ncn2Cc2ccccc2)n(C)c1=O | inconclusive: -56%
COc1ccc(Cc2nc3ccc(C(=O)NCCc4cccc(C)n4)cc3o2)cc1 | inconclusive: -40.8%
Cc1ccc(C)c(CSCc2nc3ccccc3[nH]2)c1 | active: -73.2%
CC(C)CC1c2[nH]c3ccccc3c2CCN1C(=O)C1CCOCC1 (stereo unspecified) | inactive: -0.802%
CCn1c(SCC(=O)Nc2ccc(F)cc2)nc2ccccc2c1=O | active: -69.1%
CCC(=O)Nc1nonc1-c1nc2ccccc2n1CC(C)C | inconclusive: -53%
COc1ccccc1C(=O)Nc1nc(-c2ccc(S(=O)(=O)N3CCOCC3)cc2)cs1 | active: -94.8%
CCn1cc2nc(SCC(=O)Nc3ccc(C)cc3C)n(Cc3ccc(C)cc3)c(=O)c2n1 | inconclusive: -41.5%
c1ccc2nc(OCCN3CC3)ccc2c1 | active: -64%
Cc1cccc(C)c1-n1nnnc1C(c1ccnc2ccccc12)N(CCC#N)Cc1ccccc1 (stereo unspecified) | inconclusive: -48.7%
COc1cc2c(cc1OC)CN(CC(=O)Nc1ccccc1SC)CC2 | inconclusive: -41.5%
COc1cc2[nH]c(=S)nc(NCc3ccc(C)cc3)c2cc1OC | inconclusive: -41.6%
Cc1ccccc1C(=O)NC(CC(C)C)C(=O)OCC(=O)c1c(N)n(C)c(=O)n(C)c1=O (stereo unspecified) | inconclusive: -57.6%
O=C1NC(=S)NC1Cc1ccc(O)cc1 (stereo unspecified) | inactive: -22%
Cc1ccc(C2=NS(=O)(=O)N(C)C(C(=O)Nc3cc(C)n(CC(=O)N4CCCCC4)n3)=C2)cc1 | inactive: 3.73%
COc1ccc(NS(=O)(=O)c2ccc(Cl)c(NC(=O)c3ccccc3F)c2)cc1 | inconclusive: -59.8%
Cc1cccc(C(c2sc3nc(-c4ccco4)nn3c2O)N2CCN(c3ccccc3)CC2)c1 (stereo unspecified) | inactive: 15.4%
CCOc1ccccc1CNS(=O)(=O)c1ccc(-c2coc(C)n2)cc1 | inactive: -24%

Part of the list above in order of molecular weight, ascending:
SMILES | activity change, negative = inhibition
c1ccc2nc(OCCN3CC3)ccc2c1 | active: -64%
O=C1NC(=S)NC1Cc1ccc(O)cc1 (stereo unspecified) | inactive: -22%
CCn1c(SCC(=O)Nc2ccc(F)cc2)nc2ccccc2c1=O | active: -69.1%
CCOc1ccccc1CNS(=O)(=O)c1ccc(-c2coc(C)n2)cc1 | inactive: -24%
Cc1ccc(C2=NS(=O)(=O)N(C)C(C(=O)Nc3cc(C)n(CC(=O)N4CCCCC4)n3)=C2)cc1 | inactive: 3.73%
